Reference: US20240254085A1, “CHELATORS FOR RADIOMETALS AND METHODS OF MAKING AND USING SAME” (The University of British Columbia, priority 2021, published 2024)

Assays:
[1] = Concentration-dependent radiolabelling with [^111In]In^3+; conditions: 10 min; for molar activity: RT
[2] = Concentration-dependent radiolabelling with [^155Tb]Tb^3+; conditions: 10 min; for molar activity: RT; for ligand concentration at which quantitative RCC is achieved: ambient temperature
[3] = Concentration-dependent radiolabelling and molar activity study with [^177Lu]Lu^3+; conditions: for molar activity: 10 min
[4] = Concentration-dependent radiolabelling with [^225Ac]Ac^3+; conditions: 10 min; for molar activity: RT; for ligand concentration at which quantitative RCC is achieved: ambient temperature
[5] = Concentration-dependent radiolabelling with [^44Sc]Sc^3+; conditions: NaOAc (0.1 M, pH 4.5), RT, 10 min

Compound | molar activity [1] [GBq/μmol] | molar activity [2] [GBq/μmol] | molar activity ([3]; [^177Lu]Lu^3+, RT) [GBq/μmol] | molar activity [4] [MBq/μmol] | radiolabelling with [^44Sc]Sc^3+ (RCY/RCC, in words) [5] | ligand concentration at which quantitative RCC is achieved [2] | ligand concentration at which quantitative RCC is achieved [4] | ligand concentration at which quantitative RCC is achieved ([1]; ambient temperature) | highest molar activity ([3]; [^177Lu]LuCl3 (20 MBq) in NH4OAc (0.5 M, pH 6.0) at RT, 10 minutes) [GBq/μmol] | ligand concentration at which quantitative RCC/RCY is achieved ([3]; [^177Lu]Lu^3+, RT, 10 minutes)
O=C(O)CN(CCOCCN(CC(=O)O)Cc1cccc(C(=O)O)n1)Cc1cccc(C(=O)O)n1 [H4noneunpa, reference compound] | 54 | 1.0 | 2.0 | 134 | poor radiometal ion compatibility | – | – | – | – | –
O=C(O)CN(CCOCCN(Cc1cccc(C(=O)O)n1)Cc1cccc(C(=O)O)n1)CC(=O)O [H4noneunpaX] | 54 | 1.0 | 2.0 | 134 | poor radiometal ion compatibility | – | – | – | – | –
H4noneunpaX-Ahx-Tyr^3-TATE | – | – | – | – | – | 10^−5 M | 10^−5 M | – | – | –
H4noneunpaX-Bn-NH2 | – | – | – | – | quantitative RCC within 10 min. at RT | 10^−6 M | 10^−6 M | 10^−6 M | 250 | 10^−3 to 10^−6 M and 10^−6 M
H4noneunpaX-PEG2-Tyr^3-TATE | – | – | – | – | – | 10^−5 M | 10^−5 M | – | – | –

Values joined by “and” are separate entries in the source; they are usually repeats but may differ in a detail not shown here. Equal entries are not always repeated.
